# Measured values reported in the supplement of paper PMC11348887.
# Where a name gives a salt, the structure may show the parent alone. The list shows a part of the results. Small differences around the control level are noise.
# How the values were obtained:
# Conditions in all cases: 5 µM; treatment: days 7-14 after plating, readout day 21
# [1] = tested on: hPSC-derived cortical neurons (WA09); assay: nucleus area z-score vs screen plate; higher = larger nuclei (more mature)
# [2] = tested on: hPSC-derived cortical neurons (WA09); assay: total neurite length per nucleus (MAP2) z-score; higher = more neurite growth
# [3] = tested on: hPSC-derived cortical neurons (WA09); assay: nucleus roundness z-score vs screen plate; higher = rounder nuclei (more mature)
# [4] = tested on: hPSC-derived cortical neurons (WA09); assay: KCl-induced FOS+/EGR-1+ double-positive nuclei fraction z-score (KCl minus unstimulated); higher = stronger activity-induced IEG response
Compound,nucleus area z-score [1],total neurite length per nucleus (z-score) [2],nucleus roundness z-score [3],KCl-induced FOS+/EGR-1+ double-positive nuclei fraction z-score [4]
O=C(COc1cccc2c(=O)[nH]ccc12)c1ccccc1,-1.91,0.86,-1.92,-2.84
COc1cc(NC(=O)c2ccc(-c3ccc(Cl)cc3)o2)cc(OC)c1,-0.381,0.497,0.0486,0.449
C=C[C@@]1(C)CC(=O)[C@]2(O)[C@@]3(C)[C@@H](O)CCC(C)(C)[C@@H]3[C@H](O)[C@H](OC(C)=O)[C@@]2(C)O1 [Forskolin],0.443,2.27,2.61,0.867
O=CN1CC/C(=C/c2ccc3c(c2)OCO3)C1=O,-0.209,-0.631,-0.697,-0.147
CCOC(=O)[C@H](CCc1ccccc1)N[C@H]1CCc2ccccc2N(CC(=O)O)C1=O [Benazepril HCl],-0.405,1.01,0.368,2.89
COc1ccc(NS(=O)(=O)c2sc3ccc(Cl)cc3c2C)cc1N1CCNCC1,-0.282,0.0202,-0.486,0.294
COC1CCN(C(=O)c2cc(Cc3n[nH]c(=O)c4ccccc34)ccc2F)CC1,0.303,-0.909,-0.744,-0.461
CCCCCCCCCC(=O)N[C@@H](Cc1c[nH]c2ccccc12)C(=O)N[C@H](CC(N)=O)C(=O)N[C@@H](CC(=O)O)C(=O)N[C@@H]1C(=O)NCC(=O)N[C@@H](CCCN)C(=O)N[C@@H](CC(=O)O)C(=O)N[C@H](C)C(=O)N[C@@H](CC(=O)O)C(=O)NCC(=O)N[C@H](CO)C(=O)N[C@@H]([C@H](C)CC(=O)O)C(=O)N[C@@H](CC(=O)c2ccccc2N)C(=O)O[C@@H]1C [Daptomycin],0.202,0.595,0.411,-0.371
NCC(=O)CCC(=O)O [5-Aminolevulinic acid HCl],-0.298,1.5,-0.065,0.389
O=C1NCC2(CCN(CCc3ccccc3)CC2)O1 [Fenspiride HCl],0.255,0.934,1.21,1.75
O=C(O)c1ccc(C=C2SC(=S)N(c3cccc(C(F)(F)F)c3)C2=O)cc1,0.326,0.793,0.306,0.602
CC(C)(Sc1cc(C(C)(C)C)c(O)c(C(C)(C)C)c1)Sc1cc(C(C)(C)C)c(O)c(C(C)(C)C)c1 [Probucol],0.619,-0.0961,-0.622,0.271
CCOc1cc(C(=O)N2CCC(N3CCN(C)CC3)CC2)ccc1Nc1ncc2c(n1)N(C1CCCC1)c1ccccc1C(=O)N2C,-13,-4.37,-8.33,-1.12
Cc1ccccc1CN1C2=NCCN2C(=O)C2=C1CCN(Cc1ccccc1)C2 [TIC10 Analogue],-0.226,1.61,1.69,0.491
O=C(CCN1CCN(C(=O)OCc2cc(Cl)cc(Cl)c2)CC1)c1ccc2[nH]c(=O)oc2c1,0.15,0.0851,-0.219,0.444
Nc1[nH]cnc2ncnc1-2 [Adenine HCl],0.5,0.661,0.299,0.693
Cc1cccc(Oc2cnc(=O)[nH]c2)c1,-0.766,0.948,0.281,0.792
O=C(O)Cc1ccccc1Nc1c(Cl)cccc1Cl [Diclofenac Potassium],0.948,-0.669,-0.224,-0.642
NCCC(O)(P(=O)(O)O)P(=O)(O)O [Pamidronate Disodium],0.154,0.34,0.19,1.9

Compound,nucleus area z-score [1],total neurite length per nucleus (z-score) [2],nucleus roundness z-score [3],KCl-induced FOS+/EGR-1+ double-positive nuclei fraction z-score [4]
COc1cc(CCC(C)=O)ccc1O [Vanillylacetone],1.34,-1.24,-0.726,0.285
O=c1ccn([C@@H]2O[C@H](CO)[C@@H](O)[C@H]2O)c(=O)[nH]1 [Uridine],0.263,0.229,0.236,1.65
Cc1cc(C2CCCCC2)n(O)c(=O)c1 [Ciclopirox],-15.4,-6.26,-5.49,-1.82
CNC(=C[N+](=O)[O-])NCCSCc1ccc(CN(C)C)o1 [Ranitidine],0.339,1.09,0.0866,0.694
CCCCCCCCCC(=O)N[C@H]1[C@H](Oc2c3cc4cc2Oc2ccc(cc2Cl)[C@@H](O[C@@H]2O[C@H](CO)[C@@H](O)[C@H](O)[C@H]2NC(C)=O)[C@@H]2NC(=O)[C@H](NC(=O)[C@@H]4NC(=O)[C@H]4NC(=O)[C@@H](Cc5ccc(c(Cl)c5)O3)NC(=O)[C@H](N)c3ccc(O)c(c3)Oc3cc(O)cc4c3)c3ccc(O)c(c3)-c3c(OC4O[C@H](CO)[C@@H](O)[C@H](O)[C@@H]4O)cc(O)cc3[C@@H](C(=O)O)NC2=O)O[C@H](CO)[C@@H](O)[C@@H]1O (some centres undefined) [Teicoplanin],2.37,0.107,0.644,1.2
CN1C(C(=O)Nc2ccccn2)=C(O)c2sc(Cl)cc2S1(=O)=O [Lornoxicam],0.548,0.0456,-0.107,0.203
Cc1[nH]c(/C=C2\C(=O)Nc3ccc(S(=O)(=O)Cc4c(Cl)cccc4Cl)cc32)c(C)c1C(=O)N1CCC[C@@H]1CN1CCCC1,-8.27,-3.96,-4.47,-0.85
C[C@@H](NC(=O)c1ncnc(N)c1Cl)c1ncc(C(=O)Nc2cc(C(F)(F)F)c(Cl)cn2)s1,0.312,0.712,0.299,-0.416
COc1cc2ncc(-c3ccccc3)nc2cc1OC [Tyrphostin AG 1296],0.155,0.471,0.382,3
CCS(=O)(=O)Nc1ccc2c(c1)/C(=C(/Nc1ccc(CN3CCCCC3)cc1)c1ccccc1)C(=O)N2 [Hesperadin],-3.75,-0.541,-5.7,-1.3
CC(C)(C)C(=O)Oc1ccc(S(=O)(=O)Nc2ccccc2C(=O)NCC(=O)O)cc1 [Sivelestat sodium tetrahydrate],0.115,-0.191,0.14,0.919
CCCCCCCCCCCC1=C(O)C(=O)C=C(O)C1=O [Embelin],-0.289,-0.142,0.351,-0.281
O=C1NC(=O)/C(=C/c2ccc3nccc(-c4ccncc4)c3c2)S1,-1.87,-0.981,0.555,-0.709
Cc1cn2cc(C(=O)N(C)CCO)cc(N[C@@H]3CCOc4cccc(C)c43)c2n1,-0.455,-0.0686,-0.258,3.27
O=C(O)CCCN1CCC(O[C@@H](c2ccc(Cl)cc2)c2ccccn2)CC1 [Bepotastine Besilate],0.317,0.0829,0.533,0.27
N#Cc1cccc(-c2c[nH]c3ncnc(N4CCOCC4)c23)c1,0.266,1.12,0.915,1.02
C[C@H]1COc2c(N3CCN(C)CC3)c(F)cc3c(=O)c(C(=O)O)cn1c23 [Levofloxacin],0.596,0.444,-0.971,-0.139
Cc1cccc(-c2[nH]c(C(C)(C)C)nc2-c2ccc3c(c2)OCO3)n1,2.05,-4.1,-7.95,-1.6
CCCCCCCC(=O)N[C@H](CN1CCCC1)[C@H](O)c1ccc2c(c1)OCCO2 [Eliglustat Tartrate],-0.0423,1.32,0.511,0.302

Compound,nucleus area z-score [1],total neurite length per nucleus (z-score) [2],nucleus roundness z-score [3],KCl-induced FOS+/EGR-1+ double-positive nuclei fraction z-score [4]
COc1cc(OC)c(C=C2C(=O)Nc3ccccc32)c(OC)c1,-5.58,-0.239,0.0792,-0.507
CC(C)N(CCCNC(=O)Nc1ccc(C(C)(C)C)cc1)C[C@H]1O[C@@H](n2cc(Br)c3c(N)ncnc32)[C@H](O)[C@@H]1O,-0.0987,0.286,0.649,1.71
C#C[C@]1(O)CC[C@H]2[C@@H]3CCC4=CC(=O)CC[C@@H]4[C@H]3C(=C)C[C@@]21CC [Etonogestrel],-0.373,-0.284,-0.611,-0.307
O=c1c(O)c(-c2cc(O)c(O)c(O)c2)oc2cc(O)cc(O)c12 [Myricetin],-0.525,0.56,0.66,0.497
COCCCN1CCC(NC(=O)c2cc(Cl)c(N)c3c2OCC3)CC1 [Prucalopride],-0.146,0.299,0.559,1.2
Nc1nc(N)c(N=O)c(OCC2CCCCC2)n1,1.46,-0.401,-0.758,0.498
COc1nccc(-c2c(-c3ccc(F)cc3)ncn2C2CCC(O)CC2)n1 (centres undefined),1.88,2.65,1.11,4.94
C[C@H]1COc2c(N3CCN(C)CC3)c(F)cc3c(=O)c(C(=O)O)cn1c23 [Levofloxacin hydrate],0.102,0.837,0.531,-0.0889
C[C@@H](Oc1cc(-n2cnc3ccc(CN4CCN(C)CC4)cc32)sc1C(N)=O)c1ccccc1C(F)(F)F,-3.41,0.267,-0.211,-0.851
CNc1nc(Nc2cn(C(C)(C)C#N)nc2C)ncc1C(F)(F)F,0.0916,0.0661,-0.328,1.22
"Cc1ccc2c(c1)C(=O)C1(O)CCN(c3ccccc3)C1=N2 (single isomer, unassigned; (-)) [(-)-Blebbistatin]",2.9,-0.94,-3.15,-0.474
COc1ccc(S(=O)(=O)N(C(C)=O)c2ccccc2/C=C/c2cc[n+]([O-])cc2)cc1,-5.06,-2.5,1.01,-1.4
O=C(/C=C/c1ccc2ccccc2n1)c1ccncc1,0.788,2.11,-0.00854,0.851
CC(C)(C)c1ccc(C(O)CCCN2CCC(C(O)(c3ccccc3)c3ccccc3)CC2)cc1 (centres undefined) [Terfenadine],-17.3,-6.09,-9.53,-0.69
OCCOCCN1CCN(C(c2ccccc2)c2ccc(Cl)cc2)CC1 (centres undefined) [Hydroxyzine 2HCl],-0.782,-1.12,0.048,0.167
CCCCOc1cc(C(=O)OCCN(CC)CC)ccc1N [Oxybuprocaine HCl],0.343,0.348,0.664,1.33
C[C@H]1[C@H](NC(=O)/C(=N\OC(C)(C)C(=O)O)c2csc(N)n2)C(=O)N1S(=O)(=O)O [Aztreonam],-0.695,0.499,-1.3,-0.33
C[N+](C)(C)CCCCCC[N+](C)(C)C [Hexamethonium Bromide],1.24,-0.677,0.0412,0.618

# Single records (already shown). Order of values: nucleus area z-score [1]	total neurite length per nucleus (z-score) [2]	nucleus roundness z-score [3]	KCl-induced FOS+/EGR-1+ double-positive nuclei fraction z-score [4]
# N#Cc1cccc(-c2c[nH]c3ncnc(N4CCOCC4)c23)c1 as listed: 0.266	1.12	0.915	1.02
# Cc1[nH]c(/C=C2\C(=O)Nc3ccc(S(=O)(=O)Cc4c(Cl)cccc4Cl)cc32)c(C)c1C(=O)N1CCC[C@@H]1CN1CCCC1 as listed: -8.27	-3.96	-4.47	-0.85
# NCCC(O)(P(=O)(O)O)P(=O)(O)O [Pamidronate Disodium] as listed: 0.154	0.34	0.19	1.9
# CCCCCCCCCC(=O)N[C@H]1[C@H](Oc2c3cc4cc2Oc2ccc(cc2Cl)[C@@H](O[C@@H]2O[C@H](CO)[C@@H](O)[C@H](O)[C@H]2NC(C)=O)[C@@H]2NC(=O)[C@H](NC(=O)[C@@H]4NC(=O)[C@H]4NC(=O)[C@@H](Cc5ccc(c(Cl)c5)O3)NC(=O)[C@H](N)c3ccc(O)c(c3)Oc3cc(O)cc4c3)c3ccc(O)c(c3)-c3c(OC4O[C@H](CO)[C@@H](O)[C@H](O)[C@@H]4O)cc(O)cc3[C@@H](C(=O)O)NC2=O)O[C@H](CO)[C@@H](O)[C@@H]1O (some centres undefined) [Teicoplanin] as listed: 2.37	0.107	0.644	1.2
